Laboratory results reported in paper PMC7819943, “Rice protein-binding microarrays: a tool to detect cis-acting elements near promoter regions in rice”.
Some of the results follow.

Amino acid sequences for entries named in this document (tags omitted).
UniProt Q0JBA9, entry or part of it: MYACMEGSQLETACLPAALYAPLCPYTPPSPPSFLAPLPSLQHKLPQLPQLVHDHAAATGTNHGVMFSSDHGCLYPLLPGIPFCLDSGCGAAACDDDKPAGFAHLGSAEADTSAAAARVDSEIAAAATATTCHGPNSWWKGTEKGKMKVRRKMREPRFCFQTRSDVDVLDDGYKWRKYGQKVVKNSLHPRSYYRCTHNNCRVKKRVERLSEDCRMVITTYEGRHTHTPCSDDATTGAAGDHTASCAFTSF

molecular target: OsWRKY34 (Oryza sativa, UniProt Q0JBA9 1-250); assay: protein-binding microarray (RPBM); PBS, 2% BSA, 51.3 ng/ul salmon testes DNA, 50 uM zinc acetate, 200 nM TF, 25 C, 1 h; high values mean tight binding; details: protein: recombinant; tags: N-terminal polyhistidine and DsRed monomer fusion (pET32a); label: CyDye5-dUTP incorporated in the synthesized complementary strand; 3' TTTTT single-stranded linker to array surface; dsDNA, one strand shown
In short: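 Per-feature fluorescence intensity (arbitrary units), read on an Axon 4000B scanner, is the binding signal. Transcription factors carrying an N-terminal polyhistidine tag and DsRed fusion were expressed in E. coli BL21-CodonPlus and purified on Ni–NTA. A custom Agilent array, made double-stranded by primer extension with Cy5-dUTP and blocked with 2% BSA, was incubated with 200 nM protein in PBS, 2% BSA, salmon testes DNA and 50 µM zinc acetate at 25 °C for 1 h and then washed.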

Sequence | binding signal
ACTTCGCTGTTGTGCTTGTCGGGTTTGTGTTCGAAGCCTTCGGAGTCACCTAGTGCAG | 10100 fluorescence intensity (a.u.)
TTCGGTGTACTTTTTCCATTCTAATCAGGTTTCGTCGAGCCGGAGTCACCTAGTGCAG | 8950 fluorescence intensity (a.u.)
CCGGTGGGGTGGGGAATTCGGCGGAGGAAGACGACGACGACGGAGTCACCTAGTGCAG | 9250 fluorescence intensity (a.u.)
GCTCATTTTTTTTCCCACATATATATGTATACTTTGATATCGGAGTCACCTAGTGCAG | 9590 fluorescence intensity (a.u.)
GCCGGATCCAGATCTCCACCGCCTCGCCTCGCCGCGCCGCCGGAGTCACCTAGTGCAG | 10400 fluorescence intensity (a.u.)
TTTGATGTTAATTGATGCTCTATGTTCTGTCAAGTCATTGCGGAGTCACCTAGTGCAG | 8350 fluorescence intensity (a.u.)
GCTCTGACTTGTGCTTATAACCATATACACTGGCATTCACCGGAGTCACCTAGTGCAG | 8200 fluorescence intensity (a.u.)
ATGTACTAATCTCCTTTTCTGTGTTAGACGTGCCAATGTTCGGAGTCACCTAGTGCAG | 8670 fluorescence intensity (a.u.)
CCTCTGTTTCGCAACCATACTTTGAATAACGTGCCATATACGGAGTCACCTAGTGCAG | 10300 fluorescence intensity (a.u.)
CTACAGATCTGTAGCCCACTGCTCTTCTCTCTCTTCCTTTCGGAGTCACCTAGTGCAG | 8080 fluorescence intensity (a.u.)
TGGGGCAAAATTTGTGTTAATTAGCTCAGGCTGCATTCACCGGAGTCACCTAGTGCAG | 8380 fluorescence intensity (a.u.)
TTCCGTCTAAGGCATAGTTCATATTCTTATTGCCCACATTCGGAGTCACCTAGTGCAG | 8710 fluorescence intensity (a.u.)
TTTCGACCACCTTCATGGTCCATCCACATCATCCTTCTCACGGAGTCACCTAGTGCAG | 8110 fluorescence intensity (a.u.)
AACCTTTTTTCTATAGTTTGTTCATGCCGTTATAATATAGCGGAGTCACCTAGTGCAG | 9120 fluorescence intensity (a.u.)
ACTTGCTGCCTGTTTTTCTTGTGCGTATGCAGTATACTAACGGAGTCACCTAGTGCAG | 10900 fluorescence intensity (a.u.)
TTGATCTTCTTGTAAGCAACGCCATCCATTCACTAATCCACGGAGTCACCTAGTGCAG | 8640 fluorescence intensity (a.u.)
TTCTTTTCGAAGATGCAACAGGCTTGGTTATCGATATATTCGGAGTCACCTAGTGCAG | 8100 fluorescence intensity (a.u.)
CTCAATCTCGCATATACCCTGGTACCGACGATCCCCATACCGGAGTCACCTAGTGCAG | 9840 fluorescence intensity (a.u.)
TCATGATATATCCCGTATAATATTCCGTCGAATTCACTATCGGAGTCACCTAGTGCAG | 10100 fluorescence intensity (a.u.)
TCACCGAAAAGCTTGTCCTGTTCTCCAATGTTACCTTTCACGGAGTCACCTAGTGCAG | 9860 fluorescence intensity (a.u.)
TACATCGTCAAGTTCAACTTCATCAACTGCGATATTACCCCGGAGTCACCTAGTGCAG | 9100 fluorescence intensity (a.u.)
CTCTTCCAGCTTCAATCCCACTGACAATCACACACACGACCGGAGTCACCTAGTGCAG | 12600 fluorescence intensity (a.u.)
ATTTCTCCTTTTGCTTTTGGTCACAGACTCACTGCCACAGCGGAGTCACCTAGTGCAG | 8300 fluorescence intensity (a.u.)

Copied from the list:
Entry of TTGATCTTCTTGTAAGCAACGCCATCCATTCACTAATCCACGGAGTCACCTAGTGCAG under binding signal: 8640 fluorescence intensity (a.u.)
Entry of TGGGGCAAAATTTGTGTTAATTAGCTCAGGCTGCATTCACCGGAGTCACCTAGTGCAG under binding signal: 8380 fluorescence intensity (a.u.)
